Measurements taken from PMC11612315, “GLP-1 and its derived peptides mediate pain relief through direct TRPV1 inhibition without affecting thermoregulation” (Experimental & Molecular Medicine, 2024).

Experiment: ELISA of total GLP-1 in serum after glucose
Assay type: in vivo, mouse

OC[C@H]1OC(O)[C@H](O)[C@@H](O)[C@@H]1O (some centres unmarked) [glucose]
Total GLP-1 levels in serum (after glucose 2 g/kg i.p., n = 3–4 per time point): significant increase in GLP-1 levels
Time of peak of serum total GLP-1 levels (postinjection of glucose 2 g/kg i.p.): 30 min
